From paper PMC4852720 come the findings set out here.

Protein sequences, listed by entry. Tags and fused reporters are not part of them.
UniProt Q96GX5: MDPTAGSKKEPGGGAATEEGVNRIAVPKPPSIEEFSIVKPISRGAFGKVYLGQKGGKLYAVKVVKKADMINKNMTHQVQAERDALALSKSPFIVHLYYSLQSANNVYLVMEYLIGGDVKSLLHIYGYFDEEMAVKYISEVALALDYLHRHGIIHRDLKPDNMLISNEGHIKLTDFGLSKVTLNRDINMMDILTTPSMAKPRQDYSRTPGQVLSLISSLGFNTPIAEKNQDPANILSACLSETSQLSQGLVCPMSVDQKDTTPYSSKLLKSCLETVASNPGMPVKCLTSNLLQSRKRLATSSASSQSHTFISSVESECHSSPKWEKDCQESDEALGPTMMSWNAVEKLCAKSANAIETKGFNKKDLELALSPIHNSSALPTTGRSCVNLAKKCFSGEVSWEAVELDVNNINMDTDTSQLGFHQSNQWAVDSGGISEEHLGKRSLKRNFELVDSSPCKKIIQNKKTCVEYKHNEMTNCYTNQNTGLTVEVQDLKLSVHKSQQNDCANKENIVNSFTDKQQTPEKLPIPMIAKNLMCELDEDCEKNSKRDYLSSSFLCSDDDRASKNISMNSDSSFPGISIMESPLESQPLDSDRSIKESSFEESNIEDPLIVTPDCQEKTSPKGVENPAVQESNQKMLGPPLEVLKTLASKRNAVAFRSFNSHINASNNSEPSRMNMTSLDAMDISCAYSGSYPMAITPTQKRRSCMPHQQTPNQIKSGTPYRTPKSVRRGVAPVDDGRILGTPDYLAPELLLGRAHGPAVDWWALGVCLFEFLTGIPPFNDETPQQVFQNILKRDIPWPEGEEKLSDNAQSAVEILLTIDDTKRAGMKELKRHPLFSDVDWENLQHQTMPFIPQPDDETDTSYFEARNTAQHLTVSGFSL
UniProt P62136: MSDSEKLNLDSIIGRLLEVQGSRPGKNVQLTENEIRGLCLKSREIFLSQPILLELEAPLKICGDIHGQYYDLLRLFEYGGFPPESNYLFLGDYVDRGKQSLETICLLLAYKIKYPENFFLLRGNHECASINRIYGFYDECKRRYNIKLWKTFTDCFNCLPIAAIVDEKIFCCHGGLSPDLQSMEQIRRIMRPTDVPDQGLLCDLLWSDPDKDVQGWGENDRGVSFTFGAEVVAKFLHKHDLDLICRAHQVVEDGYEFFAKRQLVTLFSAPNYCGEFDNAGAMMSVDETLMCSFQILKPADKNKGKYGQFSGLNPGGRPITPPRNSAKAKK
UniProt P62140: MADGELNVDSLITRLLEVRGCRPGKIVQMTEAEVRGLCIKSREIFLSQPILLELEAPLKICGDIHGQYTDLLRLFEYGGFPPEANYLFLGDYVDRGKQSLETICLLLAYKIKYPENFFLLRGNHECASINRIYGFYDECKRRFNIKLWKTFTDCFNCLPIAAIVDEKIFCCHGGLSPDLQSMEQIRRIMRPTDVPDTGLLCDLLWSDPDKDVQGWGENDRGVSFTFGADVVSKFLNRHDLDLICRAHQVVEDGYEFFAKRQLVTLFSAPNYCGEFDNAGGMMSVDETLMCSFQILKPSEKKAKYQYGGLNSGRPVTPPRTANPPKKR
UniProt P36873: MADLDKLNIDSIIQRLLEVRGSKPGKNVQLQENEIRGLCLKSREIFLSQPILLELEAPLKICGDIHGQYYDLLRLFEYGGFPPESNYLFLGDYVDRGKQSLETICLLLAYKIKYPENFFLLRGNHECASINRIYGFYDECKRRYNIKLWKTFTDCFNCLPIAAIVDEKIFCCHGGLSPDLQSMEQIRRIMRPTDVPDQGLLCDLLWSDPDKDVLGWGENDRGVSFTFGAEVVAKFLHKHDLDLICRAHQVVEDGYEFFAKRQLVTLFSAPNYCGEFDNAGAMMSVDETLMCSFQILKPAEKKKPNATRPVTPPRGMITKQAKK
UniProt P30153: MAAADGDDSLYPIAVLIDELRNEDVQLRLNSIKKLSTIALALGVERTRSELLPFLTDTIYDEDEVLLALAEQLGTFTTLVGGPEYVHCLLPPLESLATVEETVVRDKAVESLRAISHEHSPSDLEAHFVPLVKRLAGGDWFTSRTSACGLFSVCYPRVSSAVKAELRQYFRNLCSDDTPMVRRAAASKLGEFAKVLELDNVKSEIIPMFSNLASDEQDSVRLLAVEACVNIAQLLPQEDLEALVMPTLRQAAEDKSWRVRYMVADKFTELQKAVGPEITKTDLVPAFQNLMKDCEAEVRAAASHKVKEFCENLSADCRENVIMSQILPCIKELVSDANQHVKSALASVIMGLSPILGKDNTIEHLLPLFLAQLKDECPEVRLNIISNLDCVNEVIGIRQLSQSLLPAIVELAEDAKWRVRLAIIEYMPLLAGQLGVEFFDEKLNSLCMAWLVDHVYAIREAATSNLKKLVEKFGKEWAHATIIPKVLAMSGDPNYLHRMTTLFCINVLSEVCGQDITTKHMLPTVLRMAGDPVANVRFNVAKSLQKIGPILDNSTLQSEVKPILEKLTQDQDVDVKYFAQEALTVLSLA

Results are given in words; binding and its absence hold for the method and conditions named. Binding seen in cells or lysates may run through a third protein. A yes stands for co-enrichment or nearness to the bait. Other partners may have been found.

In the test the target is microtubule-associated serine-threonine-like kinase (MASTL) (human (endogenous in HeLa)) (UniProt Q96GX5). In words: affinity purification with mass spectrometry; endogenous MASTL immunoprecipitated from SILAC-labelled HeLa cells ('light': prometaphase arrest in nocodazole; 'heavy': RO3306 for 20 min), mixed 1:1, gel separation, in-gel digest, LC-MS/MS, 1% false discovery rate.
In the case of “catalytic α subunit of PP1 (PPP1CA) (from UniProt P62136 1-330) (enzyme)”, the binding entry is reported as “binds”. As for “catalytic β subunit of PP1 (PPP1CB) (from UniProt P62140 1-327) (enzyme)”, the binding entry was “binds”. On to “catalytic γ subunit of PP1 (PPP1CC) (from UniProt P36873 1-323) (enzyme)”, for which the binding result was “binds”.

In the case of “scaffolding A subunit of PP2A (PPP2R1A) (from UniProt P30153 1-589)”, the binding result was “binds”.
